According to patent US8524898B2, “Proton acceptor iminium/carbocation-type coupling agents” (Luxembourg Bio Technologies Ltd., priority 2007, dated 2013):

Experiments:
[1] = Solution synthesis of di-peptide Z-Phg-Pro-NH2 (coupling yield and Phg racemization); details: Z-Phg-Pro-NH2 in DMF; for DL (%): racemization
[2] = Solution synthesis of tri-peptide Z-Phe-Val-Pro-NH2 (2+1; coupling yield and Val racemization); details: Z-Phe-Val-Pro-NH2 in DMF; for LDL (%): racemization
[3] = Solid-phase synthesis of Tyr-Aib-Aib-Phe-Leu-NH2 (Aib-Aib coupling); details: for Pentapeptide (%) / Tetrapeptide (%): percent of total crude product, solid phase, DIEA (2 equivalents)
[4] = Solid-phase synthesis of 15-mer (60-74) fragment of acyl carrier protein (ACP); details: purity by reverse-phase HPLC; coupling 30 minutes, 3 equivalents reagent, 6 equivalents DIEA
[5] = base DIEA (2) (no preactivation)
[6] = base DIEA (2) (no preactivation), listed as drawing 151
[7] = base DIEA (2) (no preactivation), listed as drawing 158
[8] = base DIEA (2) (no preactivation), listed as drawing 155

For `CN(C)C(N1CCOCC1)n1n[n+]([O-])c2cc(C(F)(F)F)ccc21` (stereo not drawn), the “Yields (%)” value ([1]; base DIEA (2)) was 84.1% and the “DL (%)” value ([1]; base DIEA (2)) was 0.6%.

For `CN(C)C(N1CCOCC1)n1n[n+]([O-])c2cc(Cl)ccc21` (stereo not drawn), the “Yields (%)” value ([1]; base DIEA (2)) was 84.5% and the “DL (%)” value ([1]; base DIEA (2)) was 1.5%.

For `N#CC(C#N)=NOC(N1CCOCC1)=[N+]1CCCC1`, the “Yields (%)” value ([1]; base DIEA (2)) was 90.2% and the “DL (%)” value ([1]; base DIEA (2)) was 0.35%.

In the case of “1((dimethylimino)(thiomorpholino)methyl)3-H- [1,2,3]triazolo[4,5-b]pyridine-1-3-olate hexafluorophosphate [HDTMA]”, the “Yields (%)” value ([1]; base DIEA (2)) is reported as 83.0% and the “DL (%)” value ([1]; base DIEA (2)) is reported as 2.1%.

With “1-((dimethylimino)(morpholino)methyl)3-H-6-chlorobenzo[1,2,3]triazolo-1-ium-3-olate hexafluorophosphate [6-Cl-HDMB]” the “Yield (%)” value ([2]; base DIEA (1)) was 79.9%, the “LDL (%)” value ([2]; base DIEA (1)) was 13.9% and the “yield per a particular Aib-Aib coupling step” value [3] was 98.7%. For the same compound, the “Pentapeptide (%)” value [3] was 98.7%, the “Tetrapeptide (%)” value [3] was 1.3% and the “15-mer peptide (%)” value [4] was 62.9%.

For “1-((dimethylimino)(morpholino)methyl)3-H-[1,2,3]triazolo[4,5-b]pyridine-1-3-olate hexafluorophosphate [HDMA]”, the “Yield (%)” value ([2]; base DIEA (1)) was 87.4%, the “Yield (%)” value ([2]; base DIEA (2)) was 89.3% and the “Yield (%)” value ([2]; base TMP (1)) was 84.1%. For the same compound, the “Yield (%)” value ([2]; base TMP (2)) was 86.2%, the “LDL (%)” value ([2]; base DIEA (1)) was 5.1% and the “LDL (%)” value ([2]; base DIEA (2)) was 10.5%. The “LDL (%)” value ([2]; base TMP (1)) was 3.8%, the “LDL (%)” value ([2]; base TMP (2)) was 3.7% and the “yield per a particular Aib-Aib coupling step” value [3] was 98%. For the same compound, the “Pentapeptide (%)” value [3] was 98%, the “Tetrapeptide (%)” value [3] was <1% and the “Yields (%)” value ([1]; base DIEA (1)) was 82.3%. For the same compound, the “Yields (%)” value ([1]; base DIEA (2)) was 81.2%, the “Yields (%)” value ([1]; base TMP (2)) was 80.3% and the “DL (%)” value ([1]; base DIEA (1)) was 1.6%. For the same compound, the “DL (%)” value ([1]; base DIEA (2)) was 1.6%, the “DL (%)” value ([1]; base TMP (2)) was 3.9% and the “15-mer peptide (%)” value [4] was 63.6%.

In the case of “1-((dimethylimino)(morpholino)methyl)3-H-benzo[1,2,3]triazolo-1-ium-3-olate Hexafluorophosphate [HDMB]”, the “Yield (%)” value ([2]; base DIEA (1)) is reported as 86.3%, the “Yield (%)” value ([2]; base DIEA (2)) is reported as 88.7% and the “Yield (%)” value ([2]; base TMP (1)) is reported as 80.1%. For the same compound, the “Yield (%)” value ([2]; base TMP (2)) was 87.1%, the “LDL (%)” value ([2]; base DIEA (1)) was 11.5% and the “LDL (%)” value ([2]; base DIEA (2)) was 20.3%. For the same compound, the “LDL (%)” value ([2]; base TMP (1)) was 10.5%, the “LDL (%)” value ([2]; base TMP (2)) was 13.3% and the “yield per a particular Aib-Aib coupling step” value [3] was 89%. For the same compound, the “Pentapeptide (%)” value [3] was 89%, the “Tetrapeptide (%)” value [3] was 10% and the “Yields (%)” value ([1]; base DIEA (1)) was 82.3%. The “Yields (%)” value ([1]; base DIEA (2)) was 80.8%, the “Yields (%)” value ([1]; base TMP (2)) was 79.9% and the “DL (%)” value ([1]; base DIEA (1)) was 3.1%. The “DL (%)” value ([1]; base DIEA (2)) was 3.8%, the “DL (%)” value ([1]; base TMP (2)) was 7.8% and the “15-mer peptide (%)” value [4] was 61.6%.

For `CN(C)C(Cl)N1CCOCC1` (stereo not drawn) [DCMH, 4-((dimethylamino)chloromethylene)morpholin-4-iminium hexafluorophosphate], the “Yields (%)” value [1, 5] was 81.9% and the “DL (%)” value [1, 5] was 6.9%.

In the case of `CN(C)C(F)N1CCOCC1` (stereo not drawn) [DFMH, 4-((dimethylamino)fluoromethylene)morpholin-4-iminium hexafluorophosphate], the “Yields (%)” value [1, 5] is reported as 82.6%, the “Yields (%)” value [1, 6] is reported as 82.6% and the “DL (%)” value [1, 5] is reported as 4.9%. The “DL (%)” value [1, 6] was 4.9%.

With `CN(C)C(N1CCOCC1)n1n[n+]([O-])c2ncccc21` (stereo not drawn) [HDMA, 1-((dimethylimino)(morpholino)methyl)3-H-[1,2,3]triazolo[4,5-b]pyridine-1-3-olate hexafluorophosphate] the “Yields (%)” value ([1]; base DIEA (2)) was 81.2% and the “DL (%)” value ([1]; base DIEA (2)) was 1.6%.

For `CCOC(=O)/C(C#N)=N/OC(N1CCOCC1)=[N+](C)C` [HDMOCC, 1-[(1-(Cyano-2-ethoxy-2-oxoethylideneaminooxy)-dimethylamino-morpholinomethylene)]methanaminium hexafluorophosphate], the “Yields (%)” value ([1]; base DIEA (2)) was 88.2%, the “Yields (%)” value ([1]; base TMP (2)) was 91.0% and the “DL (%)” value ([1]; base DIEA (2)) was 0.12%. For the same compound, the “DL (%)” value ([1]; base TMP (2)) was 0.90%.

For `CCOC(=O)C(C#N)=NOC(N1CCOCC1)=[N+](C)C` [HDMOCC, 1-[(1-(Cyano-2-ethoxy-2-oxoethylideneaminooxy)-dimethylamino-morpholinomethylene)]methanaminium hexafluorophosphate], the “Yield (%)” value ([2]; base DIEA (2)) was 91.3%, the “Yield (%)” value ([2]; base TMP (1)) was 90.3% and the “Yield (%)” value ([2]; base TMP (2)) was 89.8% and 90.3%. The “LDL (%)” value ([2]; base DIEA (2)) was 19.3%, the “LDL (%)” value ([2]; base TMP (1)) was 3.5% and the “LDL (%)” value ([2]; base TMP (2)) was 8.0% and 7.0% and 3.5%. For the same compound, the “Yields (%)” value ([1]; base DIEA (2)) was 88.2%, the “Yields (%)” value ([1]; base TMP (2)) was 91.0% and the “DL (%)” value ([1]; base DIEA (2)) was 0.12%. For the same compound, the “DL (%)” value ([1]; base TMP (2)) was 0.90% and the “15-mer peptide (%)” value [4] was 79.4%.

In the case of `C[N+](C)=C(ON=C(C#N)C#N)N1CCOCC1` [HDMODC, 1-[(1-(dicyanomethyleneaminooxy)-dimethylamino-morpholinomethylene)]methanaminium hexafluorophosphate], the “Yields (%)” value ([1]; base DIEA (2)) is reported as 90.1% and the “DL (%)” value ([1]; base DIEA (2)) is reported as 0.40%.

In the case of `CN(C)C(N1CCSCC1)=[N+]1N=[N+]([O-])c2ccccc21.F[P-](F)(F)(F)(F)F` [HDTMB, 1((dimethylimino)(thiomorpholino)methyl)3-H-benzo[1,2,3]triazolo-1-ium-3-olate Hexafluorophosphate], the “Yields (%)” value ([1]; base DIEA (2)) is reported as 81.3% and the “DL (%)” value ([1]; base DIEA (2)) is reported as 3.5%.

With `CCOC(=O)C(C#N)=NOC(N(C)C)=[N+]1CCCC1` [HDmPyOCC, 1-[(1-(Cyano-2-ethoxy-2-oxoethylideneaminooxy)-dimethylamino-pyrrolodinomethylene)]methanaminium hexafluorophosphate] the “Yield (%)” value ([2]; base TMP (2)) was 88.0% and the “LDL (%)” value ([2]; base TMP (2)) was 7.9%.

For `CCOC(=O)/C(C#N)=N/OC(N1CCOCC1)=[N+]1CCCC1` [HMPyOCC, 1-((1-cyano-2-ethoxy-2-oxoethylideneaminooxy)(morpholino)methylene) pyrrolidinium hexafluorophosphate], the “Yield (%)” value ([2]; base TMP (2)) was 91.0% and the “LDL (%)” value ([2]; base TMP (2)) was 10.2%.

With `CN(C)C(F)N1CCOCC1` (stereo not drawn) [TCFH, reference compound] the “Yields (%)” value [1, 5] was 80.0%, the “Yields (%)” value [1, 7] was 80.0% and the “DL (%)” value [1, 5] was 29.9%. For the same compound, the “DL (%)” value [1, 7] was 29.9%.

In the case of `CN(C)C(F)N1CCOCC1` (stereo not drawn) [TFFH, Fluoro-N,N,N″,N″-tetramethylformamidinium hexafluorophosphate, reference compound], the “Yields (%)” value [1, 5] is reported as 80.1%, the “Yields (%)” value [1, 8] is reported as 80.1% and the “DL (%)” value [1, 5] is reported as 7.1%. The “DL (%)” value [1, 8] was 7.1%.

For `CCOC(=O)/C(C#N)=N/OC(N1CCOCC1)=[N+](C)C` [drawing 161], the “Yields (%)” value ([1]; base TMP (1)) was 93.0% and the “DL (%)” value ([1]; base TMP (1)) was 0.40%.

With `CCOC(=O)/C(C#N)=N/OC(N1CCOCC1)=[N+]1CCCC1` [drawing 162] the “Yields (%)” value ([1]; base DIEA (2)) was 89.8% and the “DL (%)” value ([1]; base DIEA (2)) was 0.32%.

Values joined by “and” are separate entries in the source; they are usually repeats but may differ in a detail not shown here. Equal values may be shown once.
